Residue numbers refer to the chain shown, from its start. These are yes or no findings as the source states them, for the method shown.

The chains are these.
B1: humanized antibody 19C11 (hu19C11) as IgG (antibody, V domains shown)
VH: EVQLVQSGAEVKKPGASVKVSCKASGYTFTDYSMHWVRQAPGQGLEWIVWINTETGEPTYADDFKGRVTITRDTSTSTAYLELSSLRSEDTAVYYCARGGIFYGMDYWGQGTLVTVSS
VL: DIQMTQSPSSLSASVGDRVTITCKASQSVINDAAWYQQKPGKAPKLLIYYTSHRYTGVPSRFSGSGSGTDFTLTISSLQEDFATYYCQQDYTSPWTFGQGTKVEIKR
B2: 5A as human IgG1 (antibody, V domains shown)
VH: B1 VH with S33D, M34I, G99E, G100I, I101L
VL: B1 VL
B3: B1 as human IgG1 (antibody, V domains shown)
VH: B1 VH with S33L, V49A, W50V, N52V, T53S, E54I, E57R, P58T, T59Y
VL: DIQMTQSPSSLSASVGDRVTITCKASQSVINDAAWYQQKPGKAPKLLIYYTSHRYTGVPSRFSGSGSGTDFTLTISSLQEDFATYYCQQDYTPFPLTFGQGTKVEIKR
B4: F2 as human IgG1 (antibody, V domains shown)
VH: EVQLVQSGAEVKKPGASVKVSCKASGYTFTDYSMHWVRQAPGQGLEWIGIIFYTGHTYYADDFKGRVTITRDTSTSTAYLELSSLRSEDTAVYYCARGGIFYGMDYWGQGTLVTVSS
VL: B1 VL
B5: 1C36, affinity-matured variant of E7, as IgG (antibody, V domains shown)
VH: EVQLVQSGAEVKKPGASVKVSCKASGYTFTDYFIHWVRQAPGQGLEWIGGIVYDATGFTTYAEEFKGRVTITRDTSTSTAYLELSSLRSEDTAVYYCARGGIFYGMDYWGQGTLVTVSS
VL: B1 VL with S93H
B6: 1C60, affinity-matured variant of E7, as IgG (antibody, V domains shown)
VH: B5 VH with G49A, T60V, E63D, E64D
VL: B1 VL with T92K, S93H

The target of the first test is Flt1 ECD. The experiment in a line: ELISA: human IgG1 at 250 nM on protein-coated wells, anti-Fc-HRP.
As to B1, the binding result is recorded as “no binding (tested: 250 nM)”.

As for B2, the binding entry was “no binding (tested: 250 nM)”.

As to B3, the binding entry was “no binding (tested: 250 nM)”.

Regarding B4, the binding result is on record as “no binding (tested: 250 nM)”.

In another test the target is VEGF. Described as above.
Turning to B1, the binding result is listed as “no binding (tested: 250 nM)”.

For the molecule B2, the binding entry is “no binding (tested: 250 nM)”.

As for B3, the binding entry is “no binding (tested: 250 nM)”.

Regarding B4, the binding entry is listed as “no binding (tested: 250 nM)”.

The target in the next test is VEGF. Kind of test: ELISA: IgG at 100 nM on immobilized protein, anti-IgG-HRP [panel A]. On the technique in general: ELISA stands for enzyme-linked immunosorbent assay.
Regarding B5, the binding result is “no binding (tested: 100 nM)”.

For the molecule B6, the binding result is reported as “no binding (tested: 100 nM)”.

For the origin of these results see US20160257744A1.
